The list shows a part of the results. Small differences around the control level are noise.

By UniProt entry, the sequences of proteins in these tests, tags left out. Where a name states a change or a piece, a line headed by the entry shows the natural chain unless it says otherwise.
UniProt Q9CQE8: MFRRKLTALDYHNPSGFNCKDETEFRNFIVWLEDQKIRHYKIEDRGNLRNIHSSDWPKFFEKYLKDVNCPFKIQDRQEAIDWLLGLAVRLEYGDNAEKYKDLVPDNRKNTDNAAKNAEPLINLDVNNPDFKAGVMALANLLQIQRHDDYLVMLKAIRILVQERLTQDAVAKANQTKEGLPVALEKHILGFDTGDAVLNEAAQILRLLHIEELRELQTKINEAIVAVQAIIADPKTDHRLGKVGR
UniProt Q99P88: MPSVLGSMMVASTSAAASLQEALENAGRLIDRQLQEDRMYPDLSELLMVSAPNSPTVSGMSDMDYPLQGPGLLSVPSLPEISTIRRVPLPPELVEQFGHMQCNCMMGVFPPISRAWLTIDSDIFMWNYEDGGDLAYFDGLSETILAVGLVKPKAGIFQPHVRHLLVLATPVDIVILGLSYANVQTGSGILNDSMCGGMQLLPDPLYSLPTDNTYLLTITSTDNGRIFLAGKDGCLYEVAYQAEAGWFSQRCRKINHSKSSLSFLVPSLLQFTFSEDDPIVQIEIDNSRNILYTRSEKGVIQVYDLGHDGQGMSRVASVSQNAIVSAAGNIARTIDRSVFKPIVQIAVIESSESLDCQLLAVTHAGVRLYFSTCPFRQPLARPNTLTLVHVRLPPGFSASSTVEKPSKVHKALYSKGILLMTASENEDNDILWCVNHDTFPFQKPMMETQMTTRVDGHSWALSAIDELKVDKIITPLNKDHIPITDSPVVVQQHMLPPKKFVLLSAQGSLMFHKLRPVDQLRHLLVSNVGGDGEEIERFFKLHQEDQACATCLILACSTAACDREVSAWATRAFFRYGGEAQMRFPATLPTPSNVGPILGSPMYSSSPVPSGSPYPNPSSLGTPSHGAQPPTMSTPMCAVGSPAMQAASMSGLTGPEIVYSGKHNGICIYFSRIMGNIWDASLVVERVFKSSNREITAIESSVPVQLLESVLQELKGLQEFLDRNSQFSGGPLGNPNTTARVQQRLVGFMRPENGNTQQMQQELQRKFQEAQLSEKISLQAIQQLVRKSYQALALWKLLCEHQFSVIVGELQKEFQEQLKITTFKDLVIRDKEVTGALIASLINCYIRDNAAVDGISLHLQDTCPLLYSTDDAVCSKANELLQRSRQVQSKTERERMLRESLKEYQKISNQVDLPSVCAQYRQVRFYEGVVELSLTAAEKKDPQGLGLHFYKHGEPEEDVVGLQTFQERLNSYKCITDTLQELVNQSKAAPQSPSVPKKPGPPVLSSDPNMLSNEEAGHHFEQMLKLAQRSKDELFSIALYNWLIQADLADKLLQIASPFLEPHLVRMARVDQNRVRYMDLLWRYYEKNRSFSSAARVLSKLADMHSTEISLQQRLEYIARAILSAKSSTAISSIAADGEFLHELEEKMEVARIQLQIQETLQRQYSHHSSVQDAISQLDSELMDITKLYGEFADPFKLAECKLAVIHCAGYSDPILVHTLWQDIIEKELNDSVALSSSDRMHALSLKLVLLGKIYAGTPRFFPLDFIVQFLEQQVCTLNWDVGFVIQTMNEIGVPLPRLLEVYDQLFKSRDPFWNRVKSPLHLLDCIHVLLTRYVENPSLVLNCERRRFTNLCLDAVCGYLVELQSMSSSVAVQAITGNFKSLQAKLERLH
UniProt Q99P31: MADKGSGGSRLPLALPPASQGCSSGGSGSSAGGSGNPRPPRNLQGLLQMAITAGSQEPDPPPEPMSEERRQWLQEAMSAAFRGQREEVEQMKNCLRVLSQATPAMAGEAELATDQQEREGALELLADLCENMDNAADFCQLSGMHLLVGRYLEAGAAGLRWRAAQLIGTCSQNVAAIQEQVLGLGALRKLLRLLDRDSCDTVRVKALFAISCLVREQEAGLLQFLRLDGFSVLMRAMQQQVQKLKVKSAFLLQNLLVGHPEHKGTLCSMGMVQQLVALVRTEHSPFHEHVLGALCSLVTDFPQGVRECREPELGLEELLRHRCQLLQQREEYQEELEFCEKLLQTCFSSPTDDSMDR
UniProt Q99MS7: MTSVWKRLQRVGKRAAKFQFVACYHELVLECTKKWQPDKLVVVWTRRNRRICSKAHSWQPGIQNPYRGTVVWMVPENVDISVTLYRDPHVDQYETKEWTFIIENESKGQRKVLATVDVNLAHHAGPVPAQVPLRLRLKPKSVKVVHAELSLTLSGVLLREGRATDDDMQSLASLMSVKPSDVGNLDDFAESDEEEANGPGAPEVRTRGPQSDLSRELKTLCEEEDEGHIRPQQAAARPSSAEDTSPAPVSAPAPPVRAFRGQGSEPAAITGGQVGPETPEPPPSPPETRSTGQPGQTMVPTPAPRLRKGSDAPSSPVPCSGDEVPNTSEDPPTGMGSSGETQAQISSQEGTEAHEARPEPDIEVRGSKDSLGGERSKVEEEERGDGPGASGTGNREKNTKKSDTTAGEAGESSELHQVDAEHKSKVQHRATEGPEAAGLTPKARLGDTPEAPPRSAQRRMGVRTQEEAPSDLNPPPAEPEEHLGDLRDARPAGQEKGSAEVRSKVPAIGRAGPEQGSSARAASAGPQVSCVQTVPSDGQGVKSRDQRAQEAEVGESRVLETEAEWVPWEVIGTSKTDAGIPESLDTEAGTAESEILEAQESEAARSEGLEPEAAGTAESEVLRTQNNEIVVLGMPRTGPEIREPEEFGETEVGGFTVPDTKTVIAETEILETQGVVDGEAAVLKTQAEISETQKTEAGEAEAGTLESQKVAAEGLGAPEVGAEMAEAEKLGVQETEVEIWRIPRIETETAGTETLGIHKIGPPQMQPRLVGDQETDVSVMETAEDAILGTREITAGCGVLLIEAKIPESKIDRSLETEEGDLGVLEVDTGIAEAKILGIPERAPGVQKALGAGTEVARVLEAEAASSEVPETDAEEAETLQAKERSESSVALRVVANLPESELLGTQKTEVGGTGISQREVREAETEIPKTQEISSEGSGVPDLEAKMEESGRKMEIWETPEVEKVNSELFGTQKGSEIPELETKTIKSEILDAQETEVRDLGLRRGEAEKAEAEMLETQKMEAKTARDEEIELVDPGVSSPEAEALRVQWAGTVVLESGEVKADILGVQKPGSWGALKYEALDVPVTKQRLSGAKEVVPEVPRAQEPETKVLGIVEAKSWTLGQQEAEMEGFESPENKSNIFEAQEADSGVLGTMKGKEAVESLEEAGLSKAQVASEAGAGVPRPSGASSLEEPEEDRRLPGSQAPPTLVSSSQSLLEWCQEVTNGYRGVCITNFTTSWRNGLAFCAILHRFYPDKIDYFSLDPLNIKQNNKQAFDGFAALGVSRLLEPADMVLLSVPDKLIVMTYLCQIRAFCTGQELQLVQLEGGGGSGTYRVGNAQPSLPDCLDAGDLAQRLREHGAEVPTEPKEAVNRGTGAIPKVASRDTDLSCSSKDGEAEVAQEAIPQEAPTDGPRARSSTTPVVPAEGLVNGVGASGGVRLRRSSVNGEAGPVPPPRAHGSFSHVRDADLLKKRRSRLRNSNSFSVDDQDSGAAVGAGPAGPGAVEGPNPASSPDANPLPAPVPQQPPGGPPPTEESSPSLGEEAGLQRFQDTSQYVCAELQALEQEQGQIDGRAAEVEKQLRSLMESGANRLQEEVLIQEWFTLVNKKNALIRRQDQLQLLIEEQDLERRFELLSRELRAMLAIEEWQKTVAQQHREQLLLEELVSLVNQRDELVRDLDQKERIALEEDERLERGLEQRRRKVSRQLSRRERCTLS
UniProt Q9CPR8: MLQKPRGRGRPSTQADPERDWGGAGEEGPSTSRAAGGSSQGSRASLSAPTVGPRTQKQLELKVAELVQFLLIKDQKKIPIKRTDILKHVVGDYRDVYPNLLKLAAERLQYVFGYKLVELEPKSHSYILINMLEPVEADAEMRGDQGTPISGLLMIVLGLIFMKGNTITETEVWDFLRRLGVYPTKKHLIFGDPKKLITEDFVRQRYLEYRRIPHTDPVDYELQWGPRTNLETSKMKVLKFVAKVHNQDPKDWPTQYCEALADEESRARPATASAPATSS
UniProt Q9CQT5: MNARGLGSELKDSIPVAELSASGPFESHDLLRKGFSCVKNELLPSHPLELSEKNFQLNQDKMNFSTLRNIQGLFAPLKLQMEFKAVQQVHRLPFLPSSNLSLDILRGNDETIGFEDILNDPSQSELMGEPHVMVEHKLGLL
UniProt Q9CQV7: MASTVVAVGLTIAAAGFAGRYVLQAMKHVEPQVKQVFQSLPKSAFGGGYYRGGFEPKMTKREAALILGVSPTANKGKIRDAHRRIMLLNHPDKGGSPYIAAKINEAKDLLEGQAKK
UniProt Q9CQY2: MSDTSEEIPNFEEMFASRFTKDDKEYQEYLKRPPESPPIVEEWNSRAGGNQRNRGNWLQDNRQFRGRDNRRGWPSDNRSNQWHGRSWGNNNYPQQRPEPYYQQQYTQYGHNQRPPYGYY
UniProt Q9CQJ7: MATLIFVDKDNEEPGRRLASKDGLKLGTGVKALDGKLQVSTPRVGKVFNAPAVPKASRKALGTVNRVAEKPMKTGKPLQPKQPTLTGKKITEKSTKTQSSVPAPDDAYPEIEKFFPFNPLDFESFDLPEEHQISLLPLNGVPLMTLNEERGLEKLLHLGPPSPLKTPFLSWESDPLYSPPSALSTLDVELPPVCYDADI
UniProt Q9CQW3: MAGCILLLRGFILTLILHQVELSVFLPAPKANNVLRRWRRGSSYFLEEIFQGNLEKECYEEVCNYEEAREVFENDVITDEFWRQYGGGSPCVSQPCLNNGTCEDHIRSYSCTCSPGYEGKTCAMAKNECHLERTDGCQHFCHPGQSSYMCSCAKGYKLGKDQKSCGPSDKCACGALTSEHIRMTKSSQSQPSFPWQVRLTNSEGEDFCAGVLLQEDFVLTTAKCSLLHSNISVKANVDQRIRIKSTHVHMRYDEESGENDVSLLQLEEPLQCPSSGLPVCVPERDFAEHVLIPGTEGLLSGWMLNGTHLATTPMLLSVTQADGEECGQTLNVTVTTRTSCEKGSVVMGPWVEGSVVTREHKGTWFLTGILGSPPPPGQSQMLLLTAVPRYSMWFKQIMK
UniProt Q9CPV3: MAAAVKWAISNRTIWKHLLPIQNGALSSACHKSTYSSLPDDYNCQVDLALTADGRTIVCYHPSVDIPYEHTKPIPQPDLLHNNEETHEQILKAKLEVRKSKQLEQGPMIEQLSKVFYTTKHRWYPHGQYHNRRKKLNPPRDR
UniProt Q99PT1: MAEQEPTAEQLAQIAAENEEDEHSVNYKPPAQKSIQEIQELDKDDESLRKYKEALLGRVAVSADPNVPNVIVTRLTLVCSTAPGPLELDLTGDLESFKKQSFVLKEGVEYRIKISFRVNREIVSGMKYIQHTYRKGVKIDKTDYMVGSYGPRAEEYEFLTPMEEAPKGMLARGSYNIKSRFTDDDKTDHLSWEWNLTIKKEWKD
UniProt Q9CQL7: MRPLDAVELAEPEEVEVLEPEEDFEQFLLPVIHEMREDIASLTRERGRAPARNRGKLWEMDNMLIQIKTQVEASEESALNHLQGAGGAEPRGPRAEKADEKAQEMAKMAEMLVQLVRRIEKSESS
UniProt Q9CQT1: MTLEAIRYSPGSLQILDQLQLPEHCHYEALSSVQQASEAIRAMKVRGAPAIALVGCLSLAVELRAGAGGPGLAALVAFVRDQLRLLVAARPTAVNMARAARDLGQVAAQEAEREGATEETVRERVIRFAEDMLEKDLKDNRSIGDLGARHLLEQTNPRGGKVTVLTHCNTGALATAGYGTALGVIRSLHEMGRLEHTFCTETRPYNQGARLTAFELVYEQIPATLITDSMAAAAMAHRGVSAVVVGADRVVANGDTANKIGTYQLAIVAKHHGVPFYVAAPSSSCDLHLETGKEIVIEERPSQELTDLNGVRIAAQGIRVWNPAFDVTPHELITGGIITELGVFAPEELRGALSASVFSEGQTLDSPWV
UniProt Q9CQU0: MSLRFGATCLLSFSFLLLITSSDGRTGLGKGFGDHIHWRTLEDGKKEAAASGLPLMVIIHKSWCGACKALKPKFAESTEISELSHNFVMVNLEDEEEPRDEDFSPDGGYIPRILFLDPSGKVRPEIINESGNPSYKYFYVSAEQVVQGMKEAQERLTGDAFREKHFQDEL
UniProt Q9CR51, whole entry: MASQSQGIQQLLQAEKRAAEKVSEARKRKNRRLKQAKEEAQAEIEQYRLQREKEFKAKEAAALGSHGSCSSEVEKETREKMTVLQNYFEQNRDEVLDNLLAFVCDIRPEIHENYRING
UniProt Q9CQC8: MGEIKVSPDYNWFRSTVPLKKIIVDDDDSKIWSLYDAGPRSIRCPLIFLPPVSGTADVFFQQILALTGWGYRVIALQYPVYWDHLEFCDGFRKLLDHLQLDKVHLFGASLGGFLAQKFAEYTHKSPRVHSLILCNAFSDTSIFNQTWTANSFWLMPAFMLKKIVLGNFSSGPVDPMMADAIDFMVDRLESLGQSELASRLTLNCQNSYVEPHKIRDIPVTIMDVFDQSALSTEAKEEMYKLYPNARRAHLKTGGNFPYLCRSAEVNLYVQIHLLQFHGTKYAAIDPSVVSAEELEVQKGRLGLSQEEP
UniProt Q9CPT5: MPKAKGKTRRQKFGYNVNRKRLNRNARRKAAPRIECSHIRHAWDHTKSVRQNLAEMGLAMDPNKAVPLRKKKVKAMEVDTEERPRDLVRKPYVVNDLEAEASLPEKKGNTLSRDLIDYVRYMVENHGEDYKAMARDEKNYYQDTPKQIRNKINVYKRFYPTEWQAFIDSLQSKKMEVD

Compound in the experiment: CN[C@@H]1C[C@H]2O[C@@](C)([C@@H]1OC)n1c3ccccc3c3c4c(c5c6ccccc6n2c5c31)C(=O)NC4 [staurosporine]
Description: log2 fold change of tryptic peptide abundance, ligand vs vehicle (limited proteolysis) (log2 ratio); higher = more trypsin-susceptible (destabilized). Particulars: ligand concentration: 20 uM; sample: mouse liver crude lysate; replicate design: treated separately.
For “UniProt Q9CQE8 (peptide sequence: NIHSSDWPK, peptide start residue: 50)”, the log2 fold change is -0.444.
The figure for “UniProt Q99N13 (peptide sequence: LQEFLLSK, peptide start residue: 178)” is -0.0551.
In the case of “UniProt Q99P88 (peptide sequence: LLQIASPFLEPHLVR, peptide start residue: 1052)” it was 0.492.
In the case of “UniProt Q99P31 (peptide sequence: SAFLLQNLLVGHPEHK, peptide start residue: 248)” it was 0.35; in that of “UniProt Q99MS7 (peptide sequence: ILGIPERAPGVQK, peptide start residue: 836)”, 0.448.
“UniProt Q9CPR8 (peptide sequence: ASLSAPTVGPR, peptide start residue: 44)”: the log2 fold change is -0.137.
Take “UniProt Q9CQT5 (peptide sequence: MNFSTLR, peptide start residue: 62)”: the log2 fold change came out at 0.0747.
“UniProt Q99MR3 (peptide sequence: FWRPQLLLLVGNPR, peptide start residue: 529)”: the log2 fold change is 0.76.
In the case of “UniProt Q9CQV7 (peptide sequence: QVFQSLPK, peptide start residue: 35)”, the log2 fold change was 0.0759.
In the case of “UniProt Q9CQY2 (peptide sequence: RGWPSDNR, peptide start residue: 71)” it was 0.475.
For “UniProt Q9CQJ7 (peptide sequence: VFNAPAVPK, peptide start residue: 47)”, the log2 fold change is 0.0701.
In the case of “UniProt Q9CQW3 (peptide sequence: TDGCQHFCHPGQSSYMCSCAK, peptide start residue: 134)” it was 0.185.
The figure for “UniProt Q9CPV3 (peptide sequence: WYPHGQYHNRR, peptide start residue: 123)” is 0.112.
The figure for “UniProt Q99PT1 (peptide sequence: YIQHTYR, peptide start residue: 128)” is -0.461; for “UniProt Q9CQL7 (peptide sequence: EDIASLTR, peptide start residue: 37)” it is 0.0422.
As for “UniProt Q9CQT1 (peptide sequence: EGATEETVR, peptide start residue: 114)”, the log2 fold change was -0.213.
In the case of “UniProt Q9CPR5 (peptide sequence: GCGTSLDLLR, peptide start residue: 7)” it was -0.144; in that of “UniProt Q99M51 (peptide sequence: LYDLNMPAFVK, peptide start residue: 104)”, 0.24; in that of “UniProt Q9CQV5 (peptide sequence: KGWLSLHTGNLDGEDHAAER, peptide start residue: 66)”, -0.255.
In the case of “UniProt Q9CQU0 (peptide sequence: VRPEIINESGNPSYK, peptide start residue: 122)” it was -0.167; in that of “UniProt Q9CQJ8 (peptide sequence: YFACLMR, peptide start residue: 39)”, -0.15; in that of “UniProt Q9CR51 (peptide sequence: EAAALGSHGSCSSEVEK, peptide start residue: 59)”, 0.202.
For “UniProt Q9CQC8 (peptide sequence: LYPNARRAHLK, peptide start residue: 241)”, the log2 fold change was determined as 0.287.
As to “UniProt Q9CPT5 (peptide sequence: QKFGYNVNRK, peptide start residue: 11)”, the log2 fold change was 0.554.
